# Data source: PubChem BioAssay AID1259254 (NCATS, 2017)
# Assay: 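Genome-wide screen for genes that prevent DNA re-replication in cancer cells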 (primary screen)
# Cells: human HCT116 colorectal cancer cells
# Knock-down reagent: single siRNA against human genes
# Timing: 3 days
# Read-out: 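Nuclei stained with Hoechst and imaged; cell-cycle phase assigned by DNA content; G2 share scaled per plate, non-targeting siRNA 0%, GMNN siRNA 100%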
# Reading the numbers: G2 robust z-score and G2 cells, % of GMNN control: higher = more G2 cells, more excess DNA replication; raw share of cells in G2: higher = larger share of cells with G2 DNA content
# Call rule: 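An siRNA counts as active if its G2 robust z-score lies at least 5 MADs above the screen median; here such calls match roughly 38% of GMNN control or more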
# Shown is a random part of about 59,000 reagents tested. About 1,550 of all reagents (2.6%) were called active. 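G2 share is only a proxy for re-replication; each gene was hit by three separate siRNAs, and active genes were retested.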 The raw values are shown without normalisation. Reagents against one gene are numbered here. Not given: the amount of reagent.
target gene,reagent,G2 robust z-score,"G2 cells, % of GMNN control",raw share of cells in G2 (%),call
LCTL (GeneID 197021),1,0.527,6.67,9.14,inactive
LCTL (GeneID 197021),2,-0.878,-3.21,3.35,inactive
LCTL (GeneID 197021),3,0.318,5.21,6.61,inactive
GORAB (GeneID 92344),1,0.883,9.18,7.98,inactive
GORAB (GeneID 92344),2,0.708,7.95,5.49,inactive
GORAB (GeneID 92344),3,0.263,4.82,4.45,inactive
KLHL8 (GeneID 57563),1,1.12,10.8,8.16,inactive
KLHL8 (GeneID 57563),2,0.0902,3.6,7.14,inactive
KLHL8 (GeneID 57563),3,-0.803,-2.69,3.4,inactive
RNF32 (GeneID 140545),1,-0.738,-2.22,3.34,inactive
RNF32 (GeneID 140545),2,1.13,10.9,6.57,inactive
RNF32 (GeneID 140545),3,-0.521,-0.702,2.32,inactive
TRIM45 (GeneID 80263),1,-0.311,0.782,5.76,inactive
TRIM45 (GeneID 80263),2,-0.843,-2.96,3.12,inactive
TRIM45 (GeneID 80263),3,1.12,10.8,8.79,inactive
NPC2 (GeneID 10577),1,-0.169,1.78,5.68,inactive
NPC2 (GeneID 10577),2,0.765,8.35,7.58,inactive
NPC2 (GeneID 10577),3,0.0115,3.05,4.31,inactive
ACTL8 (GeneID 81569),1,-0.112,2.18,6.34,inactive
ACTL8 (GeneID 81569),2,-0.751,-2.32,3.36,inactive
ACTL8 (GeneID 81569),3,-0.29,0.928,5.13,inactive
PPARG (GeneID 5468),1,0.0579,3.37,6.82,inactive
PPARG (GeneID 5468),2,2.22,18.6,10.9,inactive
PPARG (GeneID 5468),3,2.24,18.7,10.2,inactive
CELF4 (GeneID 56853),1,-1.17,-5.26,4.12,inactive
CELF4 (GeneID 56853),2,-0.352,0.494,4.62,inactive
CELF4 (GeneID 56853),3,-0.493,-0.501,4.12,inactive
IRF9 (GeneID 10379),1,-0.181,1.7,4.39,inactive
IRF9 (GeneID 10379),2,-0.14,1.98,6.56,inactive
IRF9 (GeneID 10379),3,-0.875,-3.19,5.22,inactive
DPP3 (GeneID 10072),1,-0.413,0.0609,5.58,inactive
DPP3 (GeneID 10072),2,-0.165,1.81,4.58,inactive
DPP3 (GeneID 10072),3,4.75,36.4,17.8,inactive

Single entries from the entries so far.
Entry for PPARG (GeneID 5468) #3 in “call”: inactive
Under “raw share of cells in G2 (%)”, PPARG (GeneID 5468) #1 has 6.82
Under “G2 robust z-score”, LCTL (GeneID 197021) #3 has 0.318
IRF9 (GeneID 10379) #1, call = inactive

Next entries follow:
target gene,reagent,G2 robust z-score,"G2 cells, % of GMNN control",raw share of cells in G2 (%),call
GZMH (GeneID 2999),1,-0.97,-3.86,4.21,inactive
GZMH (GeneID 2999),2,-0.0588,2.55,5.81,inactive
GZMH (GeneID 2999),3,-0.902,-3.38,2.65,inactive
GAPVD1 (GeneID 26130),1,2.9,23.4,13.2,inactive
GAPVD1 (GeneID 26130),2,-0.751,-2.32,2.94,inactive
GAPVD1 (GeneID 26130),3,1.56,13.9,8.16,inactive
HNRNPF (GeneID 3185),1,1.72,15.1,12.4,inactive
HNRNPF (GeneID 3185),2,-1.44,-7.14,1.47,inactive
HNRNPF (GeneID 3185),3,-0.684,-1.84,2.8,inactive
TOMM22P5 (GeneID 390007),1,-1.09,-4.67,2.63,inactive
TOMM22P5 (GeneID 390007),2,-0.325,0.684,4.01,inactive
TOMM22P5 (GeneID 390007),3,-0.0471,2.64,4.55,inactive
IDO2 (GeneID 169355),1,0.827,8.79,5.54,inactive
IDO2 (GeneID 169355),2,-0.571,-1.05,3.23,inactive
IDO2 (GeneID 169355),3,-0.399,0.157,3.01,inactive
RPS6KA2 (GeneID 6196),1,0.433,6.01,7.59,inactive
RPS6KA2 (GeneID 6196),2,-0.668,-1.74,4.83,inactive
RPS6KA2 (GeneID 6196),3,0.92,9.44,7.35,inactive
LIMS3 (GeneID 96626),1,-0.89,-3.3,3.23,inactive
LIMS3 (GeneID 96626),2,-1.12,-4.89,2.87,inactive
LIMS3 (GeneID 96626),3,-0.702,-1.97,4.75,inactive
SCNM1 (GeneID 79005),1,-0.986,-3.97,2.85,inactive
SCNM1 (GeneID 79005),2,1.24,11.7,9.84,inactive
SCNM1 (GeneID 79005),3,-0.58,-1.11,2.4,inactive
DGAT2 (GeneID 84649),1,11.6,84.7,34.9,active
DGAT2 (GeneID 84649),2,-1.43,-7.1,2.16,inactive
DGAT2 (GeneID 84649),3,0.0871,3.58,6.92,inactive
WDFY4 (GeneID 57705),1,-0.207,1.51,4.14,inactive
WDFY4 (GeneID 57705),2,3.47,27.4,12.1,inactive
WDFY4 (GeneID 57705),3,2.28,19,8.78,inactive
MRFAP1 (GeneID 93621),1,5.21,39.6,20,active
MRFAP1 (GeneID 93621),2,0.692,7.83,5.66,inactive
MRFAP1 (GeneID 93621),3,-0.171,1.77,2.34,inactive
DRC7 (GeneID 84229),1,-1.02,-4.24,2.7,inactive
DRC7 (GeneID 84229),2,-1.11,-4.87,2.01,inactive
DRC7 (GeneID 84229),3,-0.383,0.274,2.49,inactive
